The target in this test is Flag-tagged wild-type human Cfp1 (human) (UniProt Q9P0U4). Description: co-IP; Flag-tagged human Cfp1 in Cfp1 knockdown HEK293 cells; RIPA lysate (400 mM NaCl); Anti-FLAG M2 magnetic beads 16 h; washes with 300 mM NaCl, 0.1% NP-40; western blot.

Amino acid sequences for entries named in this document (tags omitted).
UniProt Q9P0U4: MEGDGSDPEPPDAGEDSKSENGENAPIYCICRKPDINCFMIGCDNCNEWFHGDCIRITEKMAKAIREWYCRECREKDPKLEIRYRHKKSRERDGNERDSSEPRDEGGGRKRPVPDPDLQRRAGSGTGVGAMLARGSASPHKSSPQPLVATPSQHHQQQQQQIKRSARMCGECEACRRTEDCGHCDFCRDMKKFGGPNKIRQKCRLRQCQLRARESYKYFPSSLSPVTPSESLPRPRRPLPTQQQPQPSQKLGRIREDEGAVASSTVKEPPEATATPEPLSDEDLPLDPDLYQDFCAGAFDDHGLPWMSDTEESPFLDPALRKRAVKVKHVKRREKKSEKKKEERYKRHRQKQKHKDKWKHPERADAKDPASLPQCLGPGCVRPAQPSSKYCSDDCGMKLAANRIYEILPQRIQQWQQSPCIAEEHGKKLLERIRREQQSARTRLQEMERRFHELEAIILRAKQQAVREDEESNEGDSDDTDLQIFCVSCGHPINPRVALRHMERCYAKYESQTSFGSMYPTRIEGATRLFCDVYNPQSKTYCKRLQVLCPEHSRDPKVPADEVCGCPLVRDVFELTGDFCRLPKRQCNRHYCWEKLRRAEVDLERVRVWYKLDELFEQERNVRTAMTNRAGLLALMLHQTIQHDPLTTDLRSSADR
UniProt Q15291: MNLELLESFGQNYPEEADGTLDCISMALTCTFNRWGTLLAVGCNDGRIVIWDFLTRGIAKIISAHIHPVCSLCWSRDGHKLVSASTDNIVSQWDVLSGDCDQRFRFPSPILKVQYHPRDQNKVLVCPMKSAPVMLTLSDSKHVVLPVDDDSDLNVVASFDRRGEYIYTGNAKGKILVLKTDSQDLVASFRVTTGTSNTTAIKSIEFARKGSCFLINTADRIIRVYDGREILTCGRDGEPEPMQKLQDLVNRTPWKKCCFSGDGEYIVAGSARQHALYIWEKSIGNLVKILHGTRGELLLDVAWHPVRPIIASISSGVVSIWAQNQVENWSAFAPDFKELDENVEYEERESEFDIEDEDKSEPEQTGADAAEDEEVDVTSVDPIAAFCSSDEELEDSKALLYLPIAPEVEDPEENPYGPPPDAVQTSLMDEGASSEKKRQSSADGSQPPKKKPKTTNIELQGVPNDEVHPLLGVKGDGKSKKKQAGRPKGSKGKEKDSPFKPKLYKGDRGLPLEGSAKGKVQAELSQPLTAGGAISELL

No constants are given. Whether binding was seen depends on the method and setting. In cells and extracts the contact can be indirect. Some entries that bind do so weakly or less than the wild type.

These results are taken from article PMC7145517.

For “RbBP5 of HEK293 cells (from UniProt Q15291 1-538)”, the binding result is given as “binds”.
